Assay results as given in publication PMC4574030.
Numbering of substitutions follows the chain as printed. These are yes or no findings as the source states them, for the method shown. Binding seen in cells or lysates may run through a third protein. Some entries that bind do so weakly or less than the wild type. For some of these results: Sequences can lack the tags named with a protein.

Sequences of proteins named here, by UniProt entry; tags and fusion partners are left off. A change or cut given only in a name is not applied to a line headed by its entry.
UniProt Q96CV9: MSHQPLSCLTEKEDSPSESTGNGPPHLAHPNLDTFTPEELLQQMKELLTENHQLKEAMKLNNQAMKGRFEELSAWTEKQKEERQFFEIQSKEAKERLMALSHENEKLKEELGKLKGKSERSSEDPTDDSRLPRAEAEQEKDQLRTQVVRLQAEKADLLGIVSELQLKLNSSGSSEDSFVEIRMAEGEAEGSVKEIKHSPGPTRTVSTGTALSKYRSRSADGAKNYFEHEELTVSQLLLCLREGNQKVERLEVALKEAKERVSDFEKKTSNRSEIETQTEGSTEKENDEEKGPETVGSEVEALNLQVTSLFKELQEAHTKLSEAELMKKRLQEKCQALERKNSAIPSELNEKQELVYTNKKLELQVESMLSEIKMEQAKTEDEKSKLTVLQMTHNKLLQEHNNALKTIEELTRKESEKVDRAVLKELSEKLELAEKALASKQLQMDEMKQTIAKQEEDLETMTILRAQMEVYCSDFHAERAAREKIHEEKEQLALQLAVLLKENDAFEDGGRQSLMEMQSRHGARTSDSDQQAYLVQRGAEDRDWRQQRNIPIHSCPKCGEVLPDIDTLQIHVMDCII

Columns and labels:
[1] = target: T1, cellular Tbk1 (TANK binding kinase 1), endogenous in RGC-5 cells (mouse (endogenous in RGC-5)) (UniProt Q9WUN2); test: co-IP; RGC-5 cells infected with adenoviruses expressing HA-tagged WT-OPTN or M98K-OPTN for 24 hrs; lysate (25 mM Tris-HCl pH 7.4, 150 mM NaCl, 0.8% Triton X-100, 5 mM EDTA) immunoprecipitated with Tbk1 antibody or control antibody at 4°C; blot with HA and Tbk1 antibodies
T1 sequence: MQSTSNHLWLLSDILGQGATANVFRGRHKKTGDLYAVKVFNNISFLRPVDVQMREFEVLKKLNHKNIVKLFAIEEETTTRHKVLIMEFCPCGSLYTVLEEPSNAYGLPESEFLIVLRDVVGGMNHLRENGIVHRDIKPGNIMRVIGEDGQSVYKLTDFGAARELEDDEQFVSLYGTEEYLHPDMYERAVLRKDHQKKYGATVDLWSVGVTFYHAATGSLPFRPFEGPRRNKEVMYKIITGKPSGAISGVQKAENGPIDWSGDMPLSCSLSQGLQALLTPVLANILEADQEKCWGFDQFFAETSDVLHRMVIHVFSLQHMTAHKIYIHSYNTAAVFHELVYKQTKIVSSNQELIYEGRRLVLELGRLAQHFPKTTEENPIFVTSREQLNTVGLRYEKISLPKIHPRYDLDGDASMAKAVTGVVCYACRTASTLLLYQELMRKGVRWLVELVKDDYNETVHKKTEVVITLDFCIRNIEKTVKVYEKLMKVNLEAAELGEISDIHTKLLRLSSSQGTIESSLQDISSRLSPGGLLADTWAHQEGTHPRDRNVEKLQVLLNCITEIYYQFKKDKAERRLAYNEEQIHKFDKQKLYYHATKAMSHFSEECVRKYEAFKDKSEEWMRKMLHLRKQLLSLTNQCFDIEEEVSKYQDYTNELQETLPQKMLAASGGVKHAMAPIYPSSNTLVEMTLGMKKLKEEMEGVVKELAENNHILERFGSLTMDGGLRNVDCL

[2] = target: T2, GFP-K38A-Tbk1 (catalytically inactive mutant of mouse Tbk1) (mouse) (UniProt Q9WUN2); test: co-IP; RGC-5 cells co-transfected with plasmids for HA-tagged WT-OPTN or M98K-OPTN and GFP-tagged K38A-Tbk1 for 24 hrs; lysate immunoprecipitated with GFP antibody or control antibody; blot with HA and GFP antibodies
T2 sequence: T1 sequence with K38A

binding [1]	binding [2]	Substance
binds	binds	HA-tagged WT-OPTN (human optineurin) (from UniProt Q96CV9 1-577)
binds	binds	HA-tagged M98K-OPTN (glaucoma-associated variant of human optineurin) (from UniProt Q96CV9 1-577)
